According to publication PMC2727916:
Results are given in words; binding and its absence hold for the method and conditions named. For part of these data: In cells and extracts the contact can be indirect. Some entries that bind do so weakly or less than the wild type. For part of these data: Where a sequence is shown, tags or fusion partners need not be part of it.

The chains behind the UniProt entries cited, without tags or fusion partners. Residues count along the entry.
UniProt P69566, residues 51-653: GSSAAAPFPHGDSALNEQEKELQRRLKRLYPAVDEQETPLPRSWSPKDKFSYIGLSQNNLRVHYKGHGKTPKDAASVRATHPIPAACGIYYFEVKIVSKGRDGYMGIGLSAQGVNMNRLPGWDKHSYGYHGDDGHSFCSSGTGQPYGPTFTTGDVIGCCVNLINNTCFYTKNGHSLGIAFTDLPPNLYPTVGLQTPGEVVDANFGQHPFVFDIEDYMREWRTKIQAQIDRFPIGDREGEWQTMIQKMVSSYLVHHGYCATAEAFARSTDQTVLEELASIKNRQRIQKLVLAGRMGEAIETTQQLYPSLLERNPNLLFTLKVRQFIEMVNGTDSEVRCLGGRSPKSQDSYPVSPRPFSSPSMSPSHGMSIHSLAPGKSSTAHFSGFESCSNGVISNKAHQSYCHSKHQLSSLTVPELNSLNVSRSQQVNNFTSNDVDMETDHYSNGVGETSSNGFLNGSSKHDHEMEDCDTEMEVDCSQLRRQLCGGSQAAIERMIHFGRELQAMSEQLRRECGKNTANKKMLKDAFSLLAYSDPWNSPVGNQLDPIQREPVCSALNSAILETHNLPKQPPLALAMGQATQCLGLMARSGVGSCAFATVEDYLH

How the values were obtained:
[1] = molecular target: T1, GASZ (Germ cell protein with Ankyrin repeats, Sterile alpha motif, and leucine Zipper), full-length mouse, yeast two-hybrid fusion (mouse) (UniProt Q8VD46); test: two-hybrid; full-length mouse GASZ bait mated with defined pGADT7 prey constructs; interaction quantified as fluorescent signal of equal numbers of mated cells on a 96 well oxygen biosensor plate (CLONTECH Matchmaker BioSensor Kit), 30°C, 24 hours
T1 sequence: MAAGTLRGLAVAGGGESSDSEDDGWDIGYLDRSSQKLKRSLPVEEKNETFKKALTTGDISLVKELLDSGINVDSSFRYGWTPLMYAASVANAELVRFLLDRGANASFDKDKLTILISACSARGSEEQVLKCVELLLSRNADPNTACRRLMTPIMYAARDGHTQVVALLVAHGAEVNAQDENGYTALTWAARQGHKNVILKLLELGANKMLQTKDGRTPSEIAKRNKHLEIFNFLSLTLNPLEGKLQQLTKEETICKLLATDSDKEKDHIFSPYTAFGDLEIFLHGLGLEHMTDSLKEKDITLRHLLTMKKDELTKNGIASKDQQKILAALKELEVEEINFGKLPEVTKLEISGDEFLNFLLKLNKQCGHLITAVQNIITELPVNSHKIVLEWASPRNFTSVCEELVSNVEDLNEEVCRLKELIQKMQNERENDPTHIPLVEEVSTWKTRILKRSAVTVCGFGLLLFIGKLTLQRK

[2] = molecular target: T1, GASZ (Germ cell protein with Ankyrin repeats, Sterile alpha motif, and leucine Zipper), full-length mouse, yeast two-hybrid fusion (mouse); test: two-hybrid; library screen (CLONTECH Matchmaker): full-length mouse GASZ in pGBKT7 as bait against a 17-day-old mouse testis cDNA library; yeast mating, growth on SD Leu- Trp- Ade- His- X-alpha-Gal plates, pGADT7-Rec clones sequenced; confirmed by mating bait with prey constructs
[3] = molecular target: T2, GASZ, endogenous in mouse testis (mouse (endogenous in testis)) (UniProt Q8VD46); test: co-IP; 1 mg testicular lysate of 21-day-old WT mice, 0.5% NP-40 lysis buffer, pre-cleared, overnight at 4°C with anti-GASZ, anti-MIWI or no primary antibody, protein G beads in 5% BSA; western blot
T2 sequence: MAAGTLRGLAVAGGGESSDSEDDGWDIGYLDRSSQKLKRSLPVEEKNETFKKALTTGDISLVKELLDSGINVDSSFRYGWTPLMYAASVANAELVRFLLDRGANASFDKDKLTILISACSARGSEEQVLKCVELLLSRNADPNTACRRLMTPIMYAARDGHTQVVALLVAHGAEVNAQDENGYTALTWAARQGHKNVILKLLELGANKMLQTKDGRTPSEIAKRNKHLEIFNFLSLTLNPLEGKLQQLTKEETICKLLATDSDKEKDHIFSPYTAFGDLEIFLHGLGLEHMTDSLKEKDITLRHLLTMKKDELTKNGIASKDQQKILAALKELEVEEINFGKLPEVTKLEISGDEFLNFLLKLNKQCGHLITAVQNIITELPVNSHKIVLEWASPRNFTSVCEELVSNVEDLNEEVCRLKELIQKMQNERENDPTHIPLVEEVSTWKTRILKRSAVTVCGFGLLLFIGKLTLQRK

## RANBP9 construct lacking its proline-rich amino terminus (aa 1-50), yeast two-hybrid prey (from UniProt P69566 51-653) (domain or fragment)
[1]
  binding: binds
[2]
  binding: binds

B1: GASZ (Germ cell protein with Ankyrin repeats, Sterile alpha motif, and leucine Zipper), full-length mouse, yeast two-hybrid fusion (protein, UniProt Q8VD46 1-475)
chain: MAAGTLRGLAVAGGGESSDSEDDGWDIGYLDRSSQKLKRSLPVEEKNETFKKALTTGDISLVKELLDSGINVDSSFRYGWTPLMYAASVANAELVRFLLDRGANASFDKDKLTILISACSARGSEEQVLKCVELLLSRNADPNTACRRLMTPIMYAARDGHTQVVALLVAHGAEVNAQDENGYTALTWAARQGHKNVILKLLELGANKMLQTKDGRTPSEIAKRNKHLEIFNFLSLTLNPLEGKLQQLTKEETICKLLATDSDKEKDHIFSPYTAFGDLEIFLHGLGLEHMTDSLKEKDITLRHLLTMKKDELTKNGIASKDQQKILAALKELEVEEINFGKLPEVTKLEISGDEFLNFLLKLNKQCGHLITAVQNIITELPVNSHKIVLEWASPRNFTSVCEELVSNVEDLNEEVCRLKELIQKMQNERENDPTHIPLVEEVSTWKTRILKRSAVTVCGFGLLLFIGKLTLQRK
[1]
  binding: binds
[2]
  binding: binds

B2: tudor-domain containing 1 (TDRD1), endogenous in mouse testis (protein, UniProt Q99MV1 1-1172)
chain: MMPRNNLEASTCKMAEPFNFEKKESKPPPQDPLRSPVAQHNHPTFRLKSPENGNTKNNFLLCEQNKQYLASQEDSSVVSSNPAVVNGEVGGSKGDRKPPPTGNPVSPLSLGNSSPPNQVKTKPSSNVTPEKSKKSHKLFENALSVNNPALFNSLGPPLRSTTCHRCGLFGSLRCSQCKQTYYCSTACQRRDWSSHSTICRPVQQSLNKLEDNKSPFETKAIEVKSEVDCPPGVTKEITAGAERVMFSDLRSLQLKKTMEIKGTVTEFKHPSNFYIQLYSSEVLENMNQLSTSLKETYANVVPEDGYLPVKGEVCVAKYTVDQTWNRAIVQAVDVLQRKAHVLYIDYGNEEMIPIDSVHPLSRGLDLFPPSAIKCCVSGVIPTAGEWSEGCVAAVKALLFEQFCSVKVMDILEEEVLTCAVDLVLQSSGKQLDHVLVEMGYGVKPGEQSSTEQSVDHSALEDVGRVTVESKIVTDRNALIPKVLTLNVGDEFCGVVAHIQTPEDFFCQQLQSGHKLAELQESLSEYCGHVIPRSDFYPTIGDVCCAQFSEDDQWYRASVLAYASEESVLVGYVDYGNFEILSLKRLCPIIPKLLDLPMQALNCVLAGVKPSLGIWTPEAVCVMKEMVQNRMVTVRVVGMLGTRALVELIDKSVAPHVSASKALIDSGFAIKEKDVADKGSSMHTASVPLAIEGPAEALEWTWVEFTVDETVDVVVCMMYSPGEFYCHFLKDDALEKLDDLNQSLADYCAQKPPNGFKAEIGRPCCAFFSGDGNWYRALVKEILPSGNVKVHFVDYGNVEEVTTDQLQAILPQFLLLPFQGMQCWLVDIQPPNKHWTKEATARFQACVVGLKLQARVVEITANGVGVELTDLSTPYPKIISDVLIREQLVLRCGSPQDSLMSRPANQHKQIDSHRVQASPSAEQWKTMELPVNKTIAANVLEIISPALFYAIPSEMSENQEKLCVLAAELLEHCNAQKGQPAYRPRTGDACCAKYTNDDFWYRAIVLETSESDVKVLYADYGNIETLPLSRVQPIPASHLELPFQIIRCSLEGPMELNGSCSQLVMELLRNAMLNQSVVLSVKAISKNVHAVSVEKCSENGMINIAENLVMCGLAENLTSKRKSASTKEIPHSRDCCCTELQKQIEKHEQILLFLLNNPTNQSKFTEMKKLLRS
[3]
  binding: binds

B3: Maelstrom (MAEL), endogenous in mouse testis (protein, UniProt Q8BVN9 1-434)
chain: MPNRRASRNAYYFFVQEKIPELRRRGLPVARVADAIPYCSADWALLREDEKEKYSEMAREWRAAQGKDSGPSEKQKLVSTPLRRPGMLVPKPSISPPDMSNLSIKSDQALLGGIFYFLNIFSHGELPPHCEQRFLPCEIGCVKYSLQEGIMADFHSFIHPGEIPRGFRFHCQAASDSSHKIPISNFEFGHDQATVLQNLYKFIHPNPGNWPPIYCKSDDRARVNWCLKRMERASEIRQDLELLTVEDLVVGIYQQKFLKEPSKTWVRSLLDVAMWDYSSNTRCKWHEENDILFCALAVCKKIAYCISNSLATLFGIQLTGAHVPLQDYEASNSVTPKMVVLDAGRYQKLRVESPGFCHFNSYNQEQRSNTSTGYYPSGVKISGPHSSVRGRGITRLLESISNSSNNIHRFSSCETSLSPYTPQKDGYKPFSSFS
[3]
  binding: no binding
